According to publication PMC4884989:
No constants are given. Whether binding was seen depends on the method and setting. Binding seen in cells or lysates may run through a third protein. Binding calls can cover weak binding; strength is not graded here. Sequences can lack the tags named with a protein. Each block holds one molecule with its values, some of them ahead of it.

Tests used:
[1] = target: T1, HA-Tal (TSG101-associated ligase), in vitro translated (UniProt Q6UWE0); assay: pull-down; in vitro competitive binding, competitor against Tal: in vitro translated TSGΔ154-1054 in increasing amounts and in vitro translated HA-Tal, read out as HA-Tal left on GST-TSG101 beads; buffer A, 4°C, 2 h
T1 sequence: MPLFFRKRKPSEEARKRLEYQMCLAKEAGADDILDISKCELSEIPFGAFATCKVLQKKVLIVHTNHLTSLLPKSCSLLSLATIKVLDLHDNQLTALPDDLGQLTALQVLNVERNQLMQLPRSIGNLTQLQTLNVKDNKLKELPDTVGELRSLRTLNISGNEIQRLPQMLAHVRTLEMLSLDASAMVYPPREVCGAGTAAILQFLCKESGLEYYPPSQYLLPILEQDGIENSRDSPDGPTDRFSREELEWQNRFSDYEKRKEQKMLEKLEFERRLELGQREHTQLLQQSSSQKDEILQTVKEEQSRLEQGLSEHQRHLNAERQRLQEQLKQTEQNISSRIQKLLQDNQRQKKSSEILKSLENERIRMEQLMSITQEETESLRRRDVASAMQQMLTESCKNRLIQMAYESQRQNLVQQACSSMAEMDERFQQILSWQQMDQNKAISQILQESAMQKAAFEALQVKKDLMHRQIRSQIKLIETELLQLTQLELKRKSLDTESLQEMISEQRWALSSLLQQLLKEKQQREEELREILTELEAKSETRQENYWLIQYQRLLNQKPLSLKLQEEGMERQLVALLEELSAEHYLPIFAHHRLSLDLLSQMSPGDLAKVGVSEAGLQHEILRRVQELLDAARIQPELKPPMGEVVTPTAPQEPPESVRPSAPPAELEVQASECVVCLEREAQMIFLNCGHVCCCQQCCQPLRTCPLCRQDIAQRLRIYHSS

GST-TSGΔ154-1054 (human) = assay: pull-down; GST fusion bound to glutathione-Sepharose, in vitro translated prey; buffer A (1% Triton X-100, 20 mM Tris-HCl, 140 mM NaCl, 1 mM EGTA, 10% glycerol, 1.5 mM MgCl2, 1 mM DTT, pH 8.0), 2 h at 4°C; washed with buffer B (20 mM Tris-HCl, 150 mM NaCl, 1% NP-40, pH 8.0); western blot; only the target purified

- binding [1]: binds
Molecule: TSGΔ154-1054, in vitro translated (human)

- binding (GST-TSGΔ154-1054 (human)): binds
B1: HA-Tal (TSG101-associated ligase), in vitro translated (enzyme, UniProt Q6UWE0 1-723)
chain: T1 sequence
